# Experimental data published in PubChem BioAssay AID493014 (National Center for Advancing Translational Sciences (NCATS), 2011).
# This is one part of the list. These are further read-outs of the screen, such as a control signal, another cell line or another target. No call is given for them. Most of these compounds were active or inconclusive in the main read-out, so they are no random draw. Words in brackets tell the shape of the fitted curve; partial curves, single points and poor fits give uncertain potencies.
# Test: qHTS Assay to Find Inhibitors of Chronic Active B-Cell Receptor Signaling
# Conditions: ABC-DLBCL IkBa-CBG/CBR reporter, luminescence ratio (green luciferase fused to IkBa over red control in TMD8 lymphoma cells), 4 h
# In short: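 TMD8 human ABC-DLBCL cells with doxycycline-inducible IκBα–green luciferase fusion and unfused red luciferase, in 0.5% FBS medium; compounds up to 46 uM, 4 h at 37C. Green/red luminescence ratio, filter-overlap corrected, fitted to concentration-response curves.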
# [1] = measured here: CBR red luminescence, cell number
# [2] = measured here: IkBa-CBG green luminescence
Compound,AC50 [1],AC50 [2]
CCOc1ccc(-n2c(=S)sc3c(=O)n(-c4ccccc4)c(SCC(=O)O)nc32)cc1,"14.1 µM [falling, single point]",–
O=C(/C=C/c1ccc(S(=O)(=O)N2CCOCC2)cc1)Nc1ccc(F)c(F)c1F,"9.2 µM [falling, partial curve, poor fit]",–
Cc1cccc(N=Cc2[nH]c3ccc(Br)c(Cl)c3c2O)c1,"20.6 µM [falling, partial curve]",–
COC(=O)C1=C(C)N(Cc2ccccc2)C(=NCCCOC(C)C)N[C@H]1c1ccccc1,"23.1 µM [falling, single point]",–
Cc1ccc2nc(NC(=O)CSCC(=O)OCC(=O)c3ccccc3)sc2c1,"0.731 µM [falling, full curve]",–
NC(=O)c1ccccc1N=Cc1ccc2ccccc2c1,"2.31 µM [rising, partial curve, poor fit]",–
c1ccc(CCCc2nc(-c3ccccn3)no2)cc1,"0.58 µM [rising, full curve]",–
O=C(c1ccc(S(=O)(=O)c2ccccc2Cl)c([N+](=O)[O-])c1)N1CCN(Cc2ccccc2)CC1,"20.6 µM [falling, partial curve, poor fit]",–
O=C(COc1ccccc1)Nc1cccc(S(=O)(=O)N2CCCC2)c1,"20.6 µM [falling, partial curve, poor fit]",–
Cc1cc2ncn(C(=O)c3c(-c4c(Cl)cccc4Cl)noc3C)c2cc1C,"1.78 µM [rising, partial curve]",–
O=C(CCC(=O)Nc1nnc(C2CCCCC2)s1)NCc1ccccc1,"0.282 µM [rising, full curve, poor fit]",–
C/C(=N\NC(=O)CN1CCN(Cc2ccccc2)CC1)c1ccncc1,"1.26 µM [rising, full curve, poor fit]",–
CS(=O)(=O)n1nc(OC(=O)c2cccc3ccccc23)cc1N,"11.2 µM [falling, partial curve, poor fit]",–
O=C(Nc1cc(Cl)ccc1O)C1CC(c2ccccc2Cl)=NO1 (configuration not stated),"12.6 µM [falling, single point]",–
CCC1(c2ccccc2)NC(=O)N(CC(=O)Nc2ccc(Cl)c(S(=O)(=O)N3CCCCC3)c2)C1=O (configuration not stated),"2.91 µM [falling, full curve]",–
Cc1nn(-c2ccccc2)c2[nH]c(=O)c(CNCc3ccc4c(c3)OCO4)cc12,"35.5 µM [falling, single point]",–
CCOc1cc(N2CCOCC2)c(OCC)cc1NC(=O)c1ccc(OC)c(S(=O)(=O)N2CCOCC2)c1,"0.92 µM [rising, partial curve, poor fit]",–
COc1cccc(C(=O)Nc2ccc3c(cc2=O)[C@@H](NC(C)=O)CCc2cc(OC)c(OC)c(OC)c2-3)c1,"0.631 µM [rising, full curve, poor fit]","20 µM [falling, partial curve]"
CCOC(=O)N1CCN(C(=O)c2ccc(Cl)c(S(=O)(=O)Nc3ccccc3)c2)CC1,"2.91 µM [falling, full curve]",–

# By substructure: the entries above with a Cl atom.
Compound,AC50 [1],AC50 [2]
Cc1cccc(N=Cc2[nH]c3ccc(Br)c(Cl)c3c2O)c1,"20.6 µM [falling, partial curve]",–
O=C(c1ccc(S(=O)(=O)c2ccccc2Cl)c([N+](=O)[O-])c1)N1CCN(Cc2ccccc2)CC1,"20.6 µM [falling, partial curve, poor fit]",–
Cc1cc2ncn(C(=O)c3c(-c4c(Cl)cccc4Cl)noc3C)c2cc1C,"1.78 µM [rising, partial curve]",–
O=C(Nc1cc(Cl)ccc1O)C1CC(c2ccccc2Cl)=NO1 (configuration not stated),"12.6 µM [falling, single point]",–
CCC1(c2ccccc2)NC(=O)N(CC(=O)Nc2ccc(Cl)c(S(=O)(=O)N3CCCCC3)c2)C1=O (configuration not stated),"2.91 µM [falling, full curve]",–
CCOC(=O)N1CCN(C(=O)c2ccc(Cl)c(S(=O)(=O)Nc3ccccc3)c2)CC1,"2.91 µM [falling, full curve]",–

# The results go on.

Compound,AC50 [1],AC50 [2]
Cc1ccnc(NC(=O)c2cccc(NC(=O)Cc3ccccc3)c2)c1,"6.31 µM [falling, single point]",–
Cc1nc2ccccc2c(=O)n1NC(=O)c1ccccc1,"25.1 µM [falling, single point]",–
O=C(NCc1cccnc1)c1ccc(-c2cc(Cl)ccc2Cl)o1,"35.5 µM [falling, single point]",–
Cc1c(Cl)cccc1NC(=O)CSc1ncccc1C(=O)Oc1ccccc1Cl,"10 µM [rising, partial curve, poor fit]",–
Nc1cccnc1Sc1cc(Cl)c(Cl)cc1Cl,"29.1 µM [rising, single point]",–
O=C(CCn1nc(-c2ccc(Cl)cc2)c2ccccc2c1=O)NCC1CCCO1 (configuration not stated),"29.1 µM [falling, single point]",–
Cc1ccc(S(=O)(=O)Nc2ccc(-c3nnc(SCc4ccccc4Cl)o3)cc2)cc1,"3.66 µM [rising, full curve, poor fit]",–
C=CCNC(=O)COC(=O)c1ccccc1C(=O)N(C)C1CCCCC1,"14.6 µM [rising, partial curve, poor fit]",–
Cc1ccc2[nH]c(=O)c(C(c3nnnn3CC3CCCO3)N3CCc4ccccc4C3)cc2c1 (configuration not stated),"25.9 µM [falling, single point]",–
Cc1ccc2oc(C(=O)N3CCN(CCO)CC3)c(C)c2c1,"17.8 µM [rising, single point]",–
CSc1nnc(NC(=O)c2nc(S(=O)(=O)Cc3ccccc3)ncc2Cl)s1,"35.5 µM [falling, single point]",–
COc1ccc(S(N)(=O)=O)cc1C(=O)OCCCOC(=O)c1cc(S(N)(=O)=O)ccc1OC,"2.24 µM [rising, full curve]","2.24 µM [falling, partial curve]"
O=C1Nc2ccc3sc4ccccc4c3c2C1=O,–,"22.4 µM [rising, partial curve, poor fit]"
Cc1cccc(NC2=NC(=S)N(CC#N)C23CCCCC3)c1,"18.4 µM [rising, partial curve, poor fit]","23.1 µM [falling, partial curve, poor fit]"
COc1cc(C2c3cc4c(cc3C(OC3OC5COC(c6cccs6)OC5C(O)C3O)C3COC(=O)C23)OCO4)cc(OC)c1O (configuration not stated),"35.5 µM [falling, single point]","4.47 µM [rising, partial curve, poor fit]"
Cc1ccc(CN2CC(C(=O)N(Cc3nnc(-c4ccccc4Cl)o3)C3CC3)CC2=O)cc1 (configuration not stated),"6.51 µM [falling, partial curve, poor fit]",–
CCOC(=O)c1sc(C)c2c1NC(C)(c1cccc3ccccc13)NC2=O (configuration not stated),"0.58 µM [falling, full curve, poor fit]",–
COc1ccc(CC(=O)NCc2ccco2)cc1OC,"3.26 µM [falling, partial curve, poor fit]",–
COc1ccc(Br)cc1CN(C)C(=O)C1=CC=CN2CCS(=O)(=O)N=C12,"29.1 µM [rising, single point]",–
